# Percent effect of library compounds

By UniProt entry, the sequences of proteins in these tests, tags left out. Residues count along the entry.
UniProt P9WFT3, whole entry: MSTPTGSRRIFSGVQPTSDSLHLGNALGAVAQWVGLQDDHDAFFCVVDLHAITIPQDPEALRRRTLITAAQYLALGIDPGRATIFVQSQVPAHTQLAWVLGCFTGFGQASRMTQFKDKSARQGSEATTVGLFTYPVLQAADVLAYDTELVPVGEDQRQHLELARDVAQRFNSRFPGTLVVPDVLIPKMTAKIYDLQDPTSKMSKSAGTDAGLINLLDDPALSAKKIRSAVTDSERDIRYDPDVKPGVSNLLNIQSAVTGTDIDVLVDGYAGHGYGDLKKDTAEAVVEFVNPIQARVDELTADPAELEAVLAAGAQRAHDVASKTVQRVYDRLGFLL
UniProt I6X8D2, whole entry: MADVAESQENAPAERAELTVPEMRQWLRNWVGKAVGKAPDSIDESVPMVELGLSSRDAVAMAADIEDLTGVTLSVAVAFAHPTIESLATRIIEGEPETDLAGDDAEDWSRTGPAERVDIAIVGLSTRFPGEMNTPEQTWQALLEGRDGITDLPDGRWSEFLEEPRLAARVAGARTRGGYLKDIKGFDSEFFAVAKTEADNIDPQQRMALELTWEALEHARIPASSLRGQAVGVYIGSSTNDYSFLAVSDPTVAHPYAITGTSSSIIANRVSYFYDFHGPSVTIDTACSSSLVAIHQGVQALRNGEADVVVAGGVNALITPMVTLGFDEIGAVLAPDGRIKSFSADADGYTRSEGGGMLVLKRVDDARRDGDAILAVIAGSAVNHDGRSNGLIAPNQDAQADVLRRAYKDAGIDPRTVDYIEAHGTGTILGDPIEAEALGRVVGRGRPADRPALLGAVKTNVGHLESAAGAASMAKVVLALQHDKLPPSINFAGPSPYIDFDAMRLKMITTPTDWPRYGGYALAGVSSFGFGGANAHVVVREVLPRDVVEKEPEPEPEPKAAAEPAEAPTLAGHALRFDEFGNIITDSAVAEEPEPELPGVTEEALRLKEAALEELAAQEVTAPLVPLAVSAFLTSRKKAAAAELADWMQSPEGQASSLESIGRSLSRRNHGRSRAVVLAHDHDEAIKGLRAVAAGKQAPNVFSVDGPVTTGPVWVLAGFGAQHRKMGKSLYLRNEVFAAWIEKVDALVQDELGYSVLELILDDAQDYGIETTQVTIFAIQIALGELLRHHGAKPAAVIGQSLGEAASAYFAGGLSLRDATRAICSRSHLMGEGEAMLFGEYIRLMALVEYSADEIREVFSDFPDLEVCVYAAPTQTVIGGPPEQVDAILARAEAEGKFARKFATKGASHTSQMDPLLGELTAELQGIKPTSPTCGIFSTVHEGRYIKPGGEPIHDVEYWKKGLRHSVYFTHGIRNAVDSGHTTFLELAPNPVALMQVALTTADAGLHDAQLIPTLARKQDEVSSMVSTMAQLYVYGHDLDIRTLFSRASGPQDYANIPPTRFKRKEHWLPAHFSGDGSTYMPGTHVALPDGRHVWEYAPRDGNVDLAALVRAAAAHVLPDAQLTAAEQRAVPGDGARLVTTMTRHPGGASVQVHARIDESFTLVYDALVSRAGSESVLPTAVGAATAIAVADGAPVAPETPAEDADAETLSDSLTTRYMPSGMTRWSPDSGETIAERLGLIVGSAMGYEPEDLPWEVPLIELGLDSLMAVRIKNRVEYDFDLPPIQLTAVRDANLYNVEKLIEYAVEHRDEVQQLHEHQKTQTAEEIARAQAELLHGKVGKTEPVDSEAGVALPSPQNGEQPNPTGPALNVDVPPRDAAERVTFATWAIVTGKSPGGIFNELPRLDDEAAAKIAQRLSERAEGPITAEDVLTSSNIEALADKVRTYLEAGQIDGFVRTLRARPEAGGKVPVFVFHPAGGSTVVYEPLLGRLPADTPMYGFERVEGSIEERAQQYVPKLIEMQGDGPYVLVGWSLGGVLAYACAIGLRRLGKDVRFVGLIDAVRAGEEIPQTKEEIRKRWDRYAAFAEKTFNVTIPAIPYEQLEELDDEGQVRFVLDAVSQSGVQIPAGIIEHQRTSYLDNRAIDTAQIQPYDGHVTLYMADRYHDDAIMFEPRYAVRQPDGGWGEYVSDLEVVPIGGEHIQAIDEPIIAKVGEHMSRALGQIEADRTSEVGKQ
UniProt A4I591, 1-473: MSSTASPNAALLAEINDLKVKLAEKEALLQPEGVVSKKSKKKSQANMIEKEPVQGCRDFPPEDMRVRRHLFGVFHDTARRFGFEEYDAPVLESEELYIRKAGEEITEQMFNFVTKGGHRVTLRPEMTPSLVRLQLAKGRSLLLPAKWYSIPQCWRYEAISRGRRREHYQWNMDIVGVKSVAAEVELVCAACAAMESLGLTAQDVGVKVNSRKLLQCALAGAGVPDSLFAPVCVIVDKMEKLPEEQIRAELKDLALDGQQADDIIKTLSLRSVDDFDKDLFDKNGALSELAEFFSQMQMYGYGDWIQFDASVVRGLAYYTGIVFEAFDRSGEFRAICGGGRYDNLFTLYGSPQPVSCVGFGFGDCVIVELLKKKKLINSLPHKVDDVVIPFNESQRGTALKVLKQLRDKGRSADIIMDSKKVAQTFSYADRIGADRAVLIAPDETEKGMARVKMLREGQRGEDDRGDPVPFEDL
UniProt Q8IDJ8, 1-583: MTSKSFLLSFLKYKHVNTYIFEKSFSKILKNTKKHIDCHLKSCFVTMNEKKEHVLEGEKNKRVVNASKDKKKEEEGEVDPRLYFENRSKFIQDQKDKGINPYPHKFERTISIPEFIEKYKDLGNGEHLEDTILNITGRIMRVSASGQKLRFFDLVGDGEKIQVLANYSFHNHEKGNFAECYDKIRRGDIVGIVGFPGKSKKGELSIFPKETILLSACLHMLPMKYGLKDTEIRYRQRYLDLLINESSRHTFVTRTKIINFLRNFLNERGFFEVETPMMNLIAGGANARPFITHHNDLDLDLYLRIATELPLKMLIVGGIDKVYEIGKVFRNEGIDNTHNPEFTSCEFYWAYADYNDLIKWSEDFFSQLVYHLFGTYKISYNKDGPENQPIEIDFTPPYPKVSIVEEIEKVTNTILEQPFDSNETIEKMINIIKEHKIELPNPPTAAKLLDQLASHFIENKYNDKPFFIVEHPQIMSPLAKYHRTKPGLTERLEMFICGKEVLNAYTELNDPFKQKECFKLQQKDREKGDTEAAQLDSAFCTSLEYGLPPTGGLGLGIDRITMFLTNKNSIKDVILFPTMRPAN

The values are deposited in ChEMBL (CHEMBL3988442, “University of Dundee, Small-Polar-MMV Screening Library” (2021)).

A: 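Tryptophan-tRNA ligase, Mycobacterium tuberculosis (UniProt P9WFT3). Enzyme assay of tryptophanyl-tRNA synthetase; the read-out is not stated. Tested at 10 µM. Direction is not recorded; retested compounds ran higher, which suggests that high means inhibition. Of about 65,000 compounds tested this way, about 64 (0.098%) reached 50% or more in at least one test.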
B: 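Polyketide synthase Pks13, Mycobacterium tuberculosis (UniProt I6X8D2). Enzyme assay of the thioesterase domain of polyketide synthase 13; the read-out is not stated. Tested at 30 µM. The record gives no direction; the compounds picked for IC50 retests had high values, so higher reads as stronger inhibition. Of about 67,000 compounds tested this way, about 300 (0.46%) reached 50% or more in at least one test.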
C: 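Enzyme assay of histidyl-tRNA synthetase; the read-out is not stated. Target: Histidine-tRNA ligase, Leishmania infantum (UniProt A4I591). Compounds at 30 µM. Direction is inferred from retests: higher values go with stronger inhibition. The assay is labelled LdHisRS but filed under L. infantum. Of about 69,000 compounds tested this way, about 410 (0.6%) reached 50% or more in at least one test.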
D: 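Enzyme assay of the cytosolic lysyl-tRNA synthetase in 384-well plates, read by luminescence. Target: Lysine-tRNA ligase, Plasmodium falciparum 3D7 (UniProt Q8IDJ8). Tested at 30 µM. Direction is inferred from only a few compounds that gave an IC50; most scored high, so higher reads as stronger inhibition. Of about 69,000 compounds tested this way, about 49 (0.071%) reached 50% or more in at least one test.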

The filed quantity is “Percent Effect” (%). The controls that fix the scale are not given in the record; negative values are as filed. Compounds were drawn at random from those tested, without regard to their results. A dash means the value is not listed here; it may have been measured.

| # | Compound | A | B | C | D |
|---|---|---|---|---|---|
| 1 | `N#Cc1cc2c(=O)n(CC(O)c3cccc(O)c3)ccc2[nH]c1=O` (stereo not shown) | -0.1006 | 0.01591 | 9.677 | 3.691 |
| 2 | `Cc1ccc(CN(C)C(=O)CN2CCOC(Cn3cccn3)C2)o1` (stereo not shown) | 2.669 | -15.14 | 18.8 | 0.7905 |
| 3 | `CC(C)n1c(=O)c2ccccc2n(CCN2CCCCC2)c1=O` | 0.9646 | 3.488 | 21.74 | 4.325 |
| 4 | `O=C(C[C@H]1[C@H]2CN(Cc3ccc(F)cc3)C[C@@H]12)N1CCCC1` | -5.416 | -17.45 | 5.825 | 3.717 |
| 5 | `CN(C(=O)Cc1coc(-c2cccs2)n1)C1(C#N)CCC1` | 0.9082 | -23.47 | 23.94 | 4.284 |
| 6 | `CN1C[C@@H](C(=O)NC2CCCC2)[C@@]2(COc3ccc(F)cc3C2=O)C1` | -1.847 | 16.3 | 1.408 | -1.274 |
| 7 | `CCC(CCNC(=O)c1cc(C2CC2)nc2c1cnn2C)n1cccn1` (stereo not shown) | 3.417 | 1.761 | 4.301 | 1.069 |
| 8 | `Cc1oc(-c2ccoc2)nc1CN1CCCCC1CCn1cccn1` (stereo not shown) | -0.942 | -2.711 | 10.4 | -0.478 |
| 9 | `CC(C)Cc1cc(CNC(=O)c2ccccc2C2CCNC2)no1` (stereo not shown) | -1.67 | -10.37 | 17.78 | -0.9065 |
| 10 | `COCCN1CC[C@@H](OC)[C@@H]1Cc1ccccc1` | 0.8299 | 0.8036 | 12.82 | 5.461 |
| 11 | `CCOCCCNC(=O)CN(c1ccc(F)c(F)c1)S(C)(=O)=O` | -1.469 | -10.08 | 8.276 | 5.882 |
| 12 | `O=C1CC[C@H]2CN(c3ncccc3F)CC[C@H]2N1CCc1ccccc1` | 2.755 | -28.52 | 3.226 | -2.223 |
| 13 | `CCCn1cc(C(=O)N2CCCC(Cc3nccs3)C2)cn1` (stereo not shown) | - | 14.58 | 22.86 | 3.942 |
| 14 | `Cc1ccccc1C1CCCN(C(=O)c2c[nH]c(=O)c(Cl)c2)C1` (stereo not shown) | 1.586 | 1.225 | 17.02 | 5.443 |
| 15 | `O=C(CC1CCCO1)NCCc1ccc(Br)cc1F` (stereo not shown) | 4.193 | - | 13.39 | 5.434 |
| 16 | `CN(C)C(C)(C)CNC(=O)C(C)(C)c1ccccc1F` | 0.5687 | -5.619 | 14.42 | 4.116 |
| 17 | `COc1ccc(Cc2nnc3n2N=C(C(C)(C)C)CS3)cc1` | -4.871 | 12.6 | 27.4 | 3.674 |
| 18 | `Cc1ccc(C)c(C(C)NC(=O)N2CCC(n3cncn3)CC2)c1` (stereo not shown) | -7.969 | -10.31 | 1.818 | -1.252 |
| 19 | `COCCN1CCN(C(=O)c2cc(C(C)C)on2)[C@H]2CS(=O)(=O)C[C@H]21` | -2.844 | -5.659 | 12.5 | 5.781 |
| 20 | `Cc1noc(C)c1CN1CCc2ncnc(-c3cccnc3)c2CC1` | - | -15.88 | 10 | 5.109 |
| 21 | `COCCOc1ncccc1NCc1nc2ccccc2n1C` | 5.968 | 2.152 | 15.66 | -0.6323 |
| 22 | `CCc1ccc(-c2cc(C(F)(F)F)nc(N3CCC(N)CC3)n2)cc1` | -3.75 | 1.447 | 70.97 | 15.75 |
| 23 | `CNc1cc(C2CCCN(C(=O)c3ccc(=O)[nH]n3)C2)ccn1` (stereo not shown) | -0.5464 | 4.325 | 5.674 | 1.556 |
| 24 | `CCOC(=O)c1cnn(-c2cc(Oc3ccccc3C)ncn2)c1N` | 1.795 | -2.481 | 1.786 | 1.802 |
| 25 | `O=c1cc(Cn2ccnc2)nc2n1CCCN(Cc1ccco1)C2` | 0.549 | -20.36 | -20 | 7.303 |
| 26 | `CC(NC(=O)CCn1cccn1)c1ccc(-n2ccnn2)cc1` (stereo not shown) | -3.219 | -1.463 | -2.655 | -1.395 |
| 27 | `CN1CCN(Cc2ccc(F)cc2)Cc2cccnc21` | 3.438 | -5.078 | 13.76 | 7.189 |
| 28 | `CS(=O)(=O)Cc1nc(CN2CCC(C(F)(F)F)CC2)cs1` | -7.356 | -29.16 | 12.82 | 3.512 |
| 29 | `CCCn1[nH]cc/c1=N\C(=O)CN1CCCC1Cn1cc(C)cn1` (stereo not shown) | -3.799 | -2.025 | 6.349 | 5.518 |
| 30 | `Cc1ccc(CNS(=O)(=O)CC2=NC(=O)n3cccc3C2=O)cc1` | -7.437 | -36.69 | 0 | 5.306 |
| 31 | `COCCCC(=O)NC1(c2cccc(Br)c2)CC1` | -0.4409 | 26.36 | 4.11 | 6.698 |
| 32 | `CC(=O)N[C@H]1CCN(C(=O)c2cc(Cn3cnc4ccccc43)[nH]n2)C1` | -0.2467 | 2.982 | 9.804 | 2.91 |
| 33 | `Cn1c(SCc2noc(C(C)(C)C)n2)nnc1C1CCS(=O)(=O)C1` (stereo not shown) | -7.685 | -15.31 | 22.22 | 0.7468 |
| 34 | `O=C(Nc1ccccc1N1CCOC1=O)N1CCSCC1` | 7.344 | 37.74 | 0 | -2.192 |
| 35 | `O=C(Nc1ccccc1OC1CCOC1)c1ccon1` (stereo not shown) | 0.6552 | -11.23 | -21.13 | 3.107 |
| 36 | `CN(CC(F)F)C(=O)c1cn(-c2ccc(Br)cc2)cn1` | -5.635 | -15.01 | 10.96 | -0.6987 |
| 37 | `CN(CC(N)=O)C(=O)CCCn1ccc2cc(Cl)ccc21` | 6.186 | 30.02 | -3.175 | -1.643 |
| 38 | `Cc1noc(C)c1CN1C[C@H](OCc2ccncc2)[C@H]2OCCC[C@H]21` | 1.66 | 5.847 | 17.95 | 4.904 |
| 39 | `COc1ccc(-n2ccc(C(=O)N3CCC(C(N)=O)C3)n2)cc1` (stereo not shown) | -6.317 | -15.26 | 3.077 | -1.943 |
| 40 | `COc1cc2nc3n(c(=O)c2cc1OC)CCN(C(=O)C1CC1)CC3` | - | 10.27 | 27.54 | 1.296 |
| 41 | `CN(Cc1ccco1)C[C@H]1OC[C@@H]2CCN(Cc3cccs3)C[C@@H]21` | -1.784 | -7.962 | 1.887 | -2.349 |
| 42 | `CCOCC1COCCC12CCN(C(=O)CCOC)CC2` (stereo not shown) | 2.351 | -2.254 | 5.128 | 0.8112 |
| 43 | `Cn1nc(C(=O)NCc2ccc(OC3CCCCC3)nc2)ccc1=O` | 0.6415 | -7.969 | -3.333 | 1.221 |
| 44 | `CN(C)c1ccc(C(=O)NCCCc2ccccn2)cn1` | 2.142 | -9.884 | 7.692 | -3.444 |
| 45 | `N#Cc1ccc(N2CCCN(C(=O)CC3CCCO3)CC2)cc1` (stereo not shown) | 0.07825 | -2.065 | 28.57 | 3.516 |
| 46 | `CNc1nc(CNC(=O)Nc2cccc(F)c2C)cs1` | 0.4717 | -11.34 | 5.6 | 6.318 |
| 47 | `Cc1noc(C)c1CN1C[C@H]2CNC[C@H]2C1` | - | -17.26 | 18.87 | 4.849 |
| 48 | `O=C(CNC(Cn1cccn1)c1ccccc1)Nc1cnccn1` (stereo not shown) | 11.75 | -30.6 | 8.392 | 0.4191 |
| 49 | `Cc1cc2nc(SCC(=O)N3CCOCC3)n(C(C)C)c(=O)c2[nH]1` | 1.159 | 3.606 | 7.895 | 2.372 |
| 50 | `c1csc(CN2CCc3nc(N4CCOCC4)nc(NC4CC4)c3C2)n1` | 16.49 | 1.204 | -6.195 | -8.379 |
| 51 | `CN(C)C1CCCN(C(=O)NCCNC(=O)C2CCCCC2)C1` (stereo not shown) | -6.394 | 1.472 | 10.96 | 0.9059 |
| 52 | `CC(C)C1C(=O)NCCN1C(=O)CCCc1nc(C(C)(C)C)no1` (stereo not shown) | -1.398 | -6.419 | 7.843 | -0.231 |
| 53 | `O=C1CC(c2ccc3c(c2)OCO3)c2c(n3ccsc3nc2=O)N1` (stereo not shown) | 0.07003 | 0.885 | 0 | 0.6304 |

3 of the entries, repeated:

Compound	A	B	C	D
CCOCCCNC(=O)CN(c1ccc(F)c(F)c1)S(C)(=O)=O	-1.469	-10.08	8.276	5.882
COc1ccc(-n2ccc(C(=O)N3CCC(C(N)=O)C3)n2)cc1 (stereo not shown)	-6.317	-15.26	3.077	-1.943
COCCN1CCN(C(=O)c2cc(C(C)C)on2)[C@H]2CS(=O)(=O)C[C@H]21	-2.844	-5.659	12.5	5.781